The record followed here is paper PMC3598916.

The chains behind the UniProt entries cited, without tags or fusion partners. Residues count along the entry.
UniProt P25911, residues 129-226: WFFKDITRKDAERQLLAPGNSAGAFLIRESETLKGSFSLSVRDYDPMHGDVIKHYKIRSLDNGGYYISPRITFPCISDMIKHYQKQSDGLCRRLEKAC

In the assay the target is GST-fusion protein containing the SH2-domain of Lyn (UniProt P25911). The experiment in a line: pull-down; GST-SH2(Lyn) as bait on lysates (0.5% NP-40, 0.5% sodium deoxycholate) of IgE-loaded wild-type BMMCs pretreated with 100 μM Ro5-4864 or DMSO and stimulated with Ag (DNP-HSA, 20 ng/ml) for 5 min or left unstimulated; immunoblot against phosphotyrosine, Syk and FcεRIβ-chain; only the target purified. In general terms: Immunoblotting shows a protein as a band on a membrane.

Results are given in words; binding and its absence hold for the method and conditions named. Binding seen in cells or lysates may run through a third protein. Some entries that bind do so weakly or less than the wild type.

B1: β-chain of the FcεRI, tyrosine-phosphorylated (receptor, UniProt P20490 1-235)
chain: MDTENRSRADLALPNPQESSSAPDIELLEASPAKAAPPKQTWRTFLKKELEFLGATQILVGLICLCFGTIVCSVLYVSDFDEEVLLLYKLGYPFWGAVLFVLSGFLSIISERKNTLYLVRGSLGANIVSSIAAGTGIAMLILNLTNNFAYMNNCKNVTEDDGCFVASFTTELVLMMLFLTILAFCSAVLFTIYRIGQELESKKVPDDRLYEELNVYSPIYSELEDKGETSSPVDS
modifications: tyrosine-phosphorylated (sites not given)
As for B1, the binding entry is on record as “binds”.
